Experimental data published in publication doi:10.1101/2022.10.10.511527.
No constants are given. Whether binding was seen depends on the method and setting. Binding seen in cells or lysates may run through a third protein. These calls come from enrichment with a bait or labelling near it, and not all partners need be listed. For some assays here: Sequences can lack the tags named with a protein.

Chains of the proteins cited; added tags and fusions are not shown.
UniProt Q9D4H8: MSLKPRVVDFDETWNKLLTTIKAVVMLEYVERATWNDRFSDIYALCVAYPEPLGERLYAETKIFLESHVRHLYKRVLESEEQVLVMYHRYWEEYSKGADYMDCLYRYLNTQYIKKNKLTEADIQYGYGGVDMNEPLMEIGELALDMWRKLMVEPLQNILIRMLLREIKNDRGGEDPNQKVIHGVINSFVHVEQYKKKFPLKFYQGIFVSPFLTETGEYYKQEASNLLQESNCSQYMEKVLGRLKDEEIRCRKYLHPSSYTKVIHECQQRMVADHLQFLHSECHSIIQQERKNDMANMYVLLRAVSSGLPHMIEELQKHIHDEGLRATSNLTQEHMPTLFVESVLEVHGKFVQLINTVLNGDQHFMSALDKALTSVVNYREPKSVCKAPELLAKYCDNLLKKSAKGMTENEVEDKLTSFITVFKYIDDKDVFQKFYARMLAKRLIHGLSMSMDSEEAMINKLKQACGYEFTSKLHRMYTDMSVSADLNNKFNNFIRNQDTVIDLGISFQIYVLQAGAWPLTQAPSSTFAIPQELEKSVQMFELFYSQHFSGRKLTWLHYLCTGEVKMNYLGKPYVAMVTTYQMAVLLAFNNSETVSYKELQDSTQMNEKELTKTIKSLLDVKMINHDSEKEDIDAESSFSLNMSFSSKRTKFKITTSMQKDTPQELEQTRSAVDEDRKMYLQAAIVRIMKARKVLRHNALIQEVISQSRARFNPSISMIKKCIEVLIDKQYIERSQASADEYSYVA
UniProt Q61188: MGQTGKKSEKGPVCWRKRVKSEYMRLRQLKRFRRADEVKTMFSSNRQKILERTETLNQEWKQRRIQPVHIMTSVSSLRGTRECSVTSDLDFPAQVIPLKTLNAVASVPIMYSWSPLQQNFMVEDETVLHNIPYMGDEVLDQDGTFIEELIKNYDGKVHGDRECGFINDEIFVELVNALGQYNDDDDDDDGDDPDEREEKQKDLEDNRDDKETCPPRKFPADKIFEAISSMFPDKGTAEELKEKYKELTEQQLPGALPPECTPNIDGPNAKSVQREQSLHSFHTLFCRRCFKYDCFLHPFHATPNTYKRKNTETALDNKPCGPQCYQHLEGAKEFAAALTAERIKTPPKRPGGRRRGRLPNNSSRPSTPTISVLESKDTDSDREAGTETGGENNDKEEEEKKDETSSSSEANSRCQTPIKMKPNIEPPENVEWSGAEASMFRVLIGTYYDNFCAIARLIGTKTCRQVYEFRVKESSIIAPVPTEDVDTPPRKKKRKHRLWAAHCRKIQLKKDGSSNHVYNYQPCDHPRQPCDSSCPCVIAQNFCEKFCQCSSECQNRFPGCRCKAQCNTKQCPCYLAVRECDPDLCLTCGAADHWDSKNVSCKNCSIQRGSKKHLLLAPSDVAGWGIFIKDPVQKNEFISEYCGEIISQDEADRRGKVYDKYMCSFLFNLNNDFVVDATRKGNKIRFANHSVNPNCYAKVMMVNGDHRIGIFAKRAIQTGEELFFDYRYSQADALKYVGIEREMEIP
UniProt P60122: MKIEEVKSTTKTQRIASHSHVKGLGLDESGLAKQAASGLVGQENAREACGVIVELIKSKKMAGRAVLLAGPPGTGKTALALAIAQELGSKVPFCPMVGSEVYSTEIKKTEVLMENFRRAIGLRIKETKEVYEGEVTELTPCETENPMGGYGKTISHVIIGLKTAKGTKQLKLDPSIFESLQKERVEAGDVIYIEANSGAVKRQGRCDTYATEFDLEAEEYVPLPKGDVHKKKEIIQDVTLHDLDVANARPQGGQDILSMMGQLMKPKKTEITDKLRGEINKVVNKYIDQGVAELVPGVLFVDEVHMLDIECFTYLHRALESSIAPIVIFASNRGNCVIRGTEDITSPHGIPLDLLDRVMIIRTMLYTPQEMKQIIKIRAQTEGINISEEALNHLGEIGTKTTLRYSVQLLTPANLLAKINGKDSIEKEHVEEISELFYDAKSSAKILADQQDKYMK
UniProt Q02053: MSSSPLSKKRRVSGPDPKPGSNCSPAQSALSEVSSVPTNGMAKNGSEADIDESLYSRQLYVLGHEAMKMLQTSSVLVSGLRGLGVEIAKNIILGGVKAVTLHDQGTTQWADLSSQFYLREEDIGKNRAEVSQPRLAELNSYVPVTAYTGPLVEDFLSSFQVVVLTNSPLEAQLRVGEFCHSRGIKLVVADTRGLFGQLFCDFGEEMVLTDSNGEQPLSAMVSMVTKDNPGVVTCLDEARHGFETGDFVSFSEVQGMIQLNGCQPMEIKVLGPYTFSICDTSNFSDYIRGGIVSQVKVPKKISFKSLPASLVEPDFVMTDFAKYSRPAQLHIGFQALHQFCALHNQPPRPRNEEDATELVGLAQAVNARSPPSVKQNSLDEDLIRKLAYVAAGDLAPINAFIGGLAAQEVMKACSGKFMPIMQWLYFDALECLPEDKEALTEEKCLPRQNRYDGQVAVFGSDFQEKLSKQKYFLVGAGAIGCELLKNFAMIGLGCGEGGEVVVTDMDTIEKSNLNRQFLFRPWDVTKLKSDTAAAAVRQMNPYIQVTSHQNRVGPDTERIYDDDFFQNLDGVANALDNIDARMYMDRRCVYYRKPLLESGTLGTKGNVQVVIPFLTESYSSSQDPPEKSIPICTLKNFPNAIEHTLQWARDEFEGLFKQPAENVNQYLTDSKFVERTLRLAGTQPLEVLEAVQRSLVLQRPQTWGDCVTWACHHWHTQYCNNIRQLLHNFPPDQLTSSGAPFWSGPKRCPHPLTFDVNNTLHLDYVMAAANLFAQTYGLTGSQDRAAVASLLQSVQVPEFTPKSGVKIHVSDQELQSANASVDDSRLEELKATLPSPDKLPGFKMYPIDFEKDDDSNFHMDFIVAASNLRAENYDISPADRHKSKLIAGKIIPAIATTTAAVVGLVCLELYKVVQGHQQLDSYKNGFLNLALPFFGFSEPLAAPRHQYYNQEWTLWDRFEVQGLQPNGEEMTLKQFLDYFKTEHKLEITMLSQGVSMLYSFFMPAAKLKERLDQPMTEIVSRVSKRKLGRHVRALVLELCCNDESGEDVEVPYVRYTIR
UniProt O09106: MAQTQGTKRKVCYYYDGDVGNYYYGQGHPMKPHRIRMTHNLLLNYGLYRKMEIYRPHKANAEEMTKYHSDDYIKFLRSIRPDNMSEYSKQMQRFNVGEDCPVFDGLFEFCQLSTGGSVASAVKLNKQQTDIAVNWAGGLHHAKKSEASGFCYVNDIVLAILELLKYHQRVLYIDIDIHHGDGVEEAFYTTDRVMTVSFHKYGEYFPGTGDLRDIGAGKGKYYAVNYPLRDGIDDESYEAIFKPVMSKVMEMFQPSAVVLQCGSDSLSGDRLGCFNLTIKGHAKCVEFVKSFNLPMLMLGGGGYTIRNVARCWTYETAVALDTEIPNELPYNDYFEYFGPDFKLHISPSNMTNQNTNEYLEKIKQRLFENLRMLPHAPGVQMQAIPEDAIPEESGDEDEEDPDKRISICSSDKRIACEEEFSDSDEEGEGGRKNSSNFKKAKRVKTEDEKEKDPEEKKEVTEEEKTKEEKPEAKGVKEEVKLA
UniProt Q9WTM5: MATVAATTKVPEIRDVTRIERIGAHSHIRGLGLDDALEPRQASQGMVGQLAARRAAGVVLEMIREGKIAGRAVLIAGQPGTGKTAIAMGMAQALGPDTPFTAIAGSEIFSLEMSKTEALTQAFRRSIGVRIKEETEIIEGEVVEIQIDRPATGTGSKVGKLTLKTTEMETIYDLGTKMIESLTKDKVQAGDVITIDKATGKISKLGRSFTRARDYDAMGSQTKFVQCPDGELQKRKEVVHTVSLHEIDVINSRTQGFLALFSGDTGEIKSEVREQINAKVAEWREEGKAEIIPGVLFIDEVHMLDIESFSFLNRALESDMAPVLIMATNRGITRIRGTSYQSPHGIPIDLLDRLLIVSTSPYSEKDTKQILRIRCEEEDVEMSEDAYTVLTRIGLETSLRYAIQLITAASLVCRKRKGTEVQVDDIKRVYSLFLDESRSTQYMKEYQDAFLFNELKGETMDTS
UniProt Q9R190: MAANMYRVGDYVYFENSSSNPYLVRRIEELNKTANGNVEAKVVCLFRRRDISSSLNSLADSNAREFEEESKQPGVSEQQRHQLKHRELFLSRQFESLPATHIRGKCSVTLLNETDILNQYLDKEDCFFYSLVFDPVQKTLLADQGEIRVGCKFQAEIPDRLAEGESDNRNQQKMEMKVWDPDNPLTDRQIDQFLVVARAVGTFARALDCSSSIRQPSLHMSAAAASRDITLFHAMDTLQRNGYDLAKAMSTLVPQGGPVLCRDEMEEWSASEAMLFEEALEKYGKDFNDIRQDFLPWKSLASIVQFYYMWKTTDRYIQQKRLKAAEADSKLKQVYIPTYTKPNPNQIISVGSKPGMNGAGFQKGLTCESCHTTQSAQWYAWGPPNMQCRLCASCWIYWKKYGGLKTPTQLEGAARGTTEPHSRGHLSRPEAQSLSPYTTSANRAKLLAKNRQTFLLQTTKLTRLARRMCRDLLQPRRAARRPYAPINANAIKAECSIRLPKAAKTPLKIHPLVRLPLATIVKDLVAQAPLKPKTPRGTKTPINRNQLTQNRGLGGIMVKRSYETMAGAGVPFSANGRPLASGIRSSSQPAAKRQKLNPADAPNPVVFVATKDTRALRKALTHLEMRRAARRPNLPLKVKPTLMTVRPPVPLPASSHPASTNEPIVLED
UniProt Q60737: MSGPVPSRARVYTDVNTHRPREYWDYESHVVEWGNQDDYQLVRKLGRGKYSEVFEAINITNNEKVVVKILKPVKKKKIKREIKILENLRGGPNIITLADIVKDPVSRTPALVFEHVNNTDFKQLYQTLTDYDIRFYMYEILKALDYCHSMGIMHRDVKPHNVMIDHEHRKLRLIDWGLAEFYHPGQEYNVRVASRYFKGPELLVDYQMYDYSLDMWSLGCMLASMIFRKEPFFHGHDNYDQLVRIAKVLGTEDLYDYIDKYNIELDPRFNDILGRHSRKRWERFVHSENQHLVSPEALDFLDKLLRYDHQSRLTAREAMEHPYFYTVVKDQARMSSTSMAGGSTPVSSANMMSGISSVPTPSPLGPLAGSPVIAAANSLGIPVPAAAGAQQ
UniProt P54276: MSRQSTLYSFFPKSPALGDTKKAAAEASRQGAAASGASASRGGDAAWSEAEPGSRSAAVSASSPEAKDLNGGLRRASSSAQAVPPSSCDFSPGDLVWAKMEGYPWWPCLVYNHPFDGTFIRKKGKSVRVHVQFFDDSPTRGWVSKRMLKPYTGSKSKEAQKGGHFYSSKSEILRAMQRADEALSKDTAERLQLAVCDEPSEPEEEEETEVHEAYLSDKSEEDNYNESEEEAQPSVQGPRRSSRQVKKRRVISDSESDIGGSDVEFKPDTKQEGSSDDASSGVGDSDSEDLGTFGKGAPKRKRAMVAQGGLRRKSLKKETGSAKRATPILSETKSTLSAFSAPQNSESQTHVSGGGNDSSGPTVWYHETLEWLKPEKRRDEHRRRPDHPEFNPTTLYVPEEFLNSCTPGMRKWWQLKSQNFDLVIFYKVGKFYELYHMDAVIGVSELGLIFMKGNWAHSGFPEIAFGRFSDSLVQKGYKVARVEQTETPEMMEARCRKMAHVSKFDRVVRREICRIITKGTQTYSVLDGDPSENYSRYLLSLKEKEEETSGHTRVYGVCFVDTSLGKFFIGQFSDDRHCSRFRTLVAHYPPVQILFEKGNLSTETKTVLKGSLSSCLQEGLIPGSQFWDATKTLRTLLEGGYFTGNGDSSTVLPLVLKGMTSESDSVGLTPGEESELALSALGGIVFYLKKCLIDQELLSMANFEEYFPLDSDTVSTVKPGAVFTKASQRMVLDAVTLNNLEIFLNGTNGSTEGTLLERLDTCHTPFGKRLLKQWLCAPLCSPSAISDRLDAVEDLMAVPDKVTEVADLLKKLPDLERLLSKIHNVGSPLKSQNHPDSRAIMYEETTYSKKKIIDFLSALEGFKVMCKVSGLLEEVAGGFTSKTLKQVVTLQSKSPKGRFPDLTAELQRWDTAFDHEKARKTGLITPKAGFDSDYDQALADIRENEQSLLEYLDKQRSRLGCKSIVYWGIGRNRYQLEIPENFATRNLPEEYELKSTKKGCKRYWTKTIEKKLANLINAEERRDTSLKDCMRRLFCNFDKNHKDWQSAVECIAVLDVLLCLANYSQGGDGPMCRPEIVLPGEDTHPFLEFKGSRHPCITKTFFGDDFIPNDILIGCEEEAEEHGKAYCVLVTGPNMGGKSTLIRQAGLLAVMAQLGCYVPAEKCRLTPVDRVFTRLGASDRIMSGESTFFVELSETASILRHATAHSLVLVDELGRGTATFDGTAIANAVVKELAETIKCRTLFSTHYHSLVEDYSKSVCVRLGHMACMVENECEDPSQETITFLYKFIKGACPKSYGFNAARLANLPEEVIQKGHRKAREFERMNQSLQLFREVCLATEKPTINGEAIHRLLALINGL

T1: HA/FLAG-PRAMEL7ΔN, one transgene copy in the Rosa26 locus of mouse ESCs (ESC+H/F-Pramel7ΔN) (mouse) (UniProt Q810Y8)
T1 sequence: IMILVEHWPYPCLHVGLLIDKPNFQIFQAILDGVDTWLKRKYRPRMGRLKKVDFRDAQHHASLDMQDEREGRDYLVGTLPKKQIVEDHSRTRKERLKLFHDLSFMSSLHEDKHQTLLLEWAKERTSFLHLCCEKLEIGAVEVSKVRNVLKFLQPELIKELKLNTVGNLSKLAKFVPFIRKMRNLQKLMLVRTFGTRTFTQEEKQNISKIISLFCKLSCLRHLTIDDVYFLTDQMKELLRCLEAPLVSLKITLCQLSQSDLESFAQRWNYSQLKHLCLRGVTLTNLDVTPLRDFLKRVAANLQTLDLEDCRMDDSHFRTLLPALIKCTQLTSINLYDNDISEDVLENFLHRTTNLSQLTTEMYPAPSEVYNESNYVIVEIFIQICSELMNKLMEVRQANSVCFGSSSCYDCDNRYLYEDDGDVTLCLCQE

B1: SIN3A, endogenous in mouse ESCs (protein, UniProt Q60520 1-1274)
chain: MKRRLDDQESPVYAAQQRRIPGSTEAFSHQHRVLAPAPPVYEAVSETMQSATGIQYSVAPNYQVSAVPQSSGSHGPAIAAVHSSHHHPTAVQPHGGQVVQSHAHPAPPVAPVQGQQQFQRLKVEDALSYLDQVKLQFGSQPQVYNDFLDIMKEFKSQSIDTPGVISRVSQLFKGHPDLIMGFNTFLPPGYKIEVQTNDMVNVTTPGQVHQIPTHGIQPQPQPPPQHPSQPSSQSAPTPAQPAPQPTAAKVSKPSQLQAHTPASQQTPPLPPYASPRSPPVQPHTPVTISLGTAPSLQNNQPVEFNHAINYVNKIKNRFQGQPDIYKAFLEILHTYQKEQRNAKEAGGNYTPALTEQEVYAQVARLFKNQEDLLSEFGQFLPDANSSVLLSKTTAEKVDSVRNDHGGTVKKPQLNNKPQRPSQNGCQIRRHSGTGATPPVKKKPKLMSLKESSMADASKHGVGTESLFFDKVRKALRSAEAYENFLRCLVIFNQEVISRAELVQLVSPFLGKFPELFNWFKNFLGYKESVHLESFPKERATEGIAMEIDYASCKRLGSSYRALPKSYQQPKCTGRTPLCKEVLNDTWVSFPSWSEDSTFVSSKKTQYEEHIYRCEDERFELDVVLETNLATIRVLEAIQKKLSRLSAEEQAKFRLDNTLGGTSEVIHRKALQRIYADKAADIIDGLRKNPSIAVPIVLKRLKMKEEEWREAQRGFNKVWREQNEKYYLKSLDHQGINFKQNDTKVLRSKSLLNEIESIYDERQEQATEENAGVPVGPHLSLAYEDKQILEDAAALIIHHVKRQTGIQKEDKYKIKQIMHHFIPDLLFAQRGDLSDVEEEEEEEMDVDEATGAPKKHNGVGGSPPKSKLLFSNTAAQKLRGMDEVYNLFYVNNNWYIFMRLHQILCLRLLRICSQAERQIEEENREREWEREVLGIKRDKSDSPAIQLRLKEPMDVDVEDYYPAFLDMVRSLLDGNIDSSQYEDSLREMFTIHAYIAFTMDKLIQSIVRQLQHIVSDEVCVQVTDLYLAENNNGATGGQLNSQTSRSLLESAYQRKAEQLMSDENCFKLMFIQSQGQVQLTVELLDTEEENSDDPVEAERWSDYVERYMSSDTTSPELREHLAQKPVFLPRNLRRIRKCQRGREQQEKEGKEGNSKKTMENVESLDKLECRFKLNSYKMVYVIKSEDYMYRRTALLRAHQSHERVSKRLHQRFQAWVDKWTKEHVPREMAAETSKWLMGEGLEGLVPCTTTCDTETLHFVSINKYRVKYGTVFKAP
B2: JARID2, endogenous in mouse ESCs (protein, UniProt Q62315 1-1234)
chain: MSKERPKRNIIQKKYDDSDGIPWSEERVVRKVLYLSLKEFKNAQKRQHGEGLAGSLKAVNGLLGNAQAKALGPASEQSENEKDDASQVSSTSNDVSSSDFEEGPSRKRPRLQAQRKFAQSQPNSPSTTPVKIVEPLLPPPATQISDLSKRKPKTEDFLTFLCLRGSPALPNSMVYFGSSQDEEDVEEEDDETEDVKATTNNASSSCQSTPRKGKTHKHVHNGHVFNGSSRSAREKEPAHKHRSKEATPGKEKHSEPRADSRREQASGAQPTAASAAASSAKGLAANHQPPPSHRSAQDLRKQVSKVNGVTRMSSLGAGTNSAKKIREVRPSPSKTVKYTATVTKGTVTYTKAKRELVKETKPNHHKPSSAVNHTISGKTESSNAKTRKQVLSLGGASKSTGPAASGLKASSRLNPKSCTKEVGGRQLREGLRNSKRRLEEAQQVDKPQSPPKKMKGVAGNAEAPGKKASAASGEKSLLNGHVKKEVPERSLERNRPKRAAAGKNMLGKQAHGKTEGTPCENRSTSQPESSHKPHDPQGKPEKGSGKSGWAAMDEIPVLRPSAKEFHDPLIYIESVRAQVEKYGMCRVIPPPDWRPECKLNDEMRFVTQIQHIHKLGRRWGPNVQRLACIKKHLRSQGITMDELPLIGGCELDLACFFRLINEMGGMQQVTDLKKWNKLADMLRIPKTAQDRLAKLQEAYCQYLLSYDSLSPEEHRRLEKEVLMEKEILEKRKGPLEGHTESDHHKFHSLPRFEPKNGLVHGVTPRNGFRSKLKEVGRAPLKTGRRRLFAQEKEVVKEEEEDKGVLNDFHKCIYKGRSVSLTTFYRTARNIMNMCFSKEPAPAEIEQEYWRLVEEKDCHVAVHCGKVDTNTHGSGFPVGKSEPFSRHGWNLTVLPNNTGSILRHLGAVPGVTIPWLNIGMVFSTSCWSRDQNHLPYIDYLHTGADCIWYCIPAEEENKLEDVVHTLLQGNGTPGLQMLESNVMISPEVLCKKGIKVHRTVQQSGQFVVCFPGSFVSKVCCGYNVSETVHFATTQWTSMGFETAKEMKRRHIAKPFSMEKLLYQIAQAEAKKENGPTLSTISALLDELRDTELRQRRLLFEAGLHSSARYGSHDGNSTVADGKKKPRKWLQLETSERRCQICQHLCYLSMVVQENENVVFCLECALRHVEKQKSCRGLKLMYRYDEEQIISLVNQICGKVSGKHGGIENCLNKPTPKRGPRKRATVDVPPSRLPSS
B3: MCM4, endogenous in mouse ESCs (protein, UniProt P49717 1-862)
chain: MSSPASTPSRRSSRRGRVTPTQSLRSEESRSSPNRRRRGEDSSTGELLPMPTSPGADLQSPPAQNALFSSPPQMHSLAIPLDFDVSSPLTYGTPSSRVEGTPRSGVRGTPVRQRPDLGSARKGLQVDLQSDGAAAEDIVPSEQSLGQKLVIWGTDVNVATCKENFQRFLQCFTDPLAKEEENVGIDITQPLYMQQLGEINITGEPFLNVNCEHIKSFSKNLYRQLISYPQEVIPTFDMAVNEIFFDRYPDSILEHQIQVRPFNALKTKSMRNLNPEDIDQLITISGMVIRTSQLIPEMQEAFFQCQVCAHTTRVEIDRGRIAEPCSCVHCHTTHSMALIHNRSFFSDKQMIKLQESPEDMPAGQTPHTIVLFAHNDLVDKVQPGDRVNVTGIYRAVPIRVNPRVSNVKSVYKTHIDVIHYRKTDAKRLHGLDEEAEQKLFSEKRVKLLKELSRKPDIYERLASALAPSIYEHEDIKKGILLQLFGGTRKDFSHTGRGKFRAEINILLCGDPGTSKSQLLQYVYNLVPRGQYTSGKGSSAVGLTAYVMKDPETRQLVLQTGALVLSDNGICCIDEFDKMNESTRSVLHEVMEQQTLSIAKAGIICQLNARTSVLAAANPIESQWNPKKTTIENIQLPHTLLSRFDLIFLMLDPQDEAYDRRLAHHLVSLYYQSEEQVEEEFLDMAVLKDYIAYAHSTIMPRLSEEASQALIEAYVNMRKIGSSRGMVSAYPRQLESLIRLAEAHAKVRFSNKVEAIDVEEAKRLHREALKQSATDPRTGIVDISILTTGMSATSRKRKEELAEALRKLILSKGKTPALKYQQLFEDIRGQSDTAITKDMFEEALRALADDDFLTVTGKTVRLL

How the values were obtained:
[1] = target: Cullin2 (CUL2), endogenous in mouse ESCs (mouse (endogenous in E14 ESCs)) (UniProt Q9D4H8); assay: affinity purification with mass spectrometry
[2] = target: T1, HA/FLAG-PRAMEL7ΔN, one transgene copy in the Rosa26 locus of mouse ESCs (ESC+H/F-Pramel7ΔN) (mouse); assay: affinity purification with mass spectrometry

Molecule	binding [1]	binding [2]
chromodomain helicase DNA-binding protein 4 (CHD4), endogenous in mouse ESCs (from UniProt Q6PDQ2 1-1915)	binds	binds
EZH2, endogenous in mouse ESCs (from UniProt Q61188 1-746)		binds
RUVBL1, endogenous in mouse ESCs (from UniProt P60122 1-456)		binds
UBA1, endogenous in mouse ESCs (from UniProt Q02053 1-1058)	binds	binds
HDAC1, endogenous in mouse ESCs (from UniProt O09106 1-482)		binds
TDH, endogenous in mouse ESCs		binds
RUVBL2, endogenous in mouse ESCs (from UniProt Q9WTM5 1-463)		binds
NUMA1, endogenous in mouse ESCs (from UniProt E9Q7G0 1-2094)	binds	binds
MTA2, endogenous in mouse ESCs (from UniProt Q9R190 1-668)		binds
DNA methyltransferase 1 (DNMT1), endogenous in mouse ESCs (from UniProt P13864 1-1620)	binds	binds
CSNK2A1, endogenous in mouse ESCs (from UniProt Q60737 1-391)		binds
MSH6, endogenous in mouse ESCs (from UniProt P54276 1-1358)	binds	binds
B1		binds
B2		binds
B3		binds
